The full ranking holds about 33,000 sequences; the median of “E-score (-0.5 to 0.5)” is about -0.0059, and the highest 2% start at about 0.26. The list shows a part of the results.

For the test, the target named is T1, Cin5 (UniProt P40917).
T1 sequence: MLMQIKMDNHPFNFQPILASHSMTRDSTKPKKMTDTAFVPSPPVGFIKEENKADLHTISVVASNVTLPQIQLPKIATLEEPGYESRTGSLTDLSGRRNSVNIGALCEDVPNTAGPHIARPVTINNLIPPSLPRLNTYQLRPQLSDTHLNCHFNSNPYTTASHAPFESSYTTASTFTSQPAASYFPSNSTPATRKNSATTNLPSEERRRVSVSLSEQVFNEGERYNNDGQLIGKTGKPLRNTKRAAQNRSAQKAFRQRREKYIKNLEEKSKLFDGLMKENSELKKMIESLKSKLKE
In words: PBM E-score (8-mer binding enrichment) (E-score (-0.5 to 0.5)); higher = stronger / more preferred TF binding. Particulars: protein concentration: 100 nM; construct: GST-full length. In short, it runs like this:
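Yeast transcription factors, full-length or as DNA-binding domains, were expressed with a GST tag using PURExpress in vitro transcription/translation. At about 100-200 nM they were applied to universal all-10-mer Agilent arrays, double-stranded by primer extension on fresh or once-stripped slides. Fluorescent anti-GST detected bound protein, and masliner normalised the scans. E-scores for ungapped eight-base words, pooled with reverse complements, came from the Universal PBM Analysis Suite.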
With CAACCGAG, the “PBM E-score” value stood at 0.0694. For the sequence GCGGCGCC, the “PBM E-score” value worked out at 0.115. Turning to TCTCTAAA, the “PBM E-score” value was -0.131. For CAGCGAAG, the “PBM E-score” value was -0.187.

GACCTCAA: the “PBM E-score” value was -0.00016. With CCCACCGC, the “PBM E-score” value was determined as 0.104. Regarding ATCTCCTG, the “PBM E-score” value is 0.013.

On to CTTTTCGA, for which the “PBM E-score” value was determined as 0.00347.

Turning to GTATCGAA, the “PBM E-score” value stood at 0.165. The same measure for TATTCGCA: 0.142. The same measure for CGAACAAA: 0.272; for CCATATGA: -0.0136. The result for ATAGAGGC reads -0.297; that for ATTCAGGA, -0.0382; that for AGTATCGC, 0.0508.

Consider CTTCACGA, for which the “PBM E-score” value was -0.257. Regarding AAAGAACT, the “PBM E-score” value was -0.0138. For GCATGGTA, the “PBM E-score” value turned out to be 0.0106.

As for CCCTCACA, the “PBM E-score” value worked out at 0.00055. For the sequence ACCATCTC, the “PBM E-score” value came out at 0.158.

Take TCTGCCCA: the “PBM E-score” value is -0.166. The same measure for AGTGCGAT: 0.0262; for GGTTCAGA: -0.18; for GGTTTTGA: 0.127. Regarding AGAGGACC, the “PBM E-score” value is -0.22. For CTTTTGGA, the “PBM E-score” value was -0.0744. The same measure for TCAATAAA: 0.0175.

For the sequence CCGATACC, the “PBM E-score” value is -0.12. As to TCCAGAGA, the “PBM E-score” value is -0.0725. CAACCCAG: the “PBM E-score” value was -0.131. In the case of CTGGACAA, the “PBM E-score” value is -0.0606. Regarding CGACAAAA, the “PBM E-score” value worked out at 0.0427. Regarding ACCACCGA, the “PBM E-score” value was -0.143. CCTCCTGC: the “PBM E-score” value was -0.159. In the case of AACCTTGG, the “PBM E-score” value was -0.0583. With CGCATTAA, the “PBM E-score” value was found to be 0.127. The result for TTGAGCAA reads -0.0752. Take GAGTACGC: the “PBM E-score” value was -0.205. Consider GCAGAGAC, for which the “PBM E-score” value is -0.271.

Take TACCGAGA: the “PBM E-score” value was -0.0161. For CAGACCAC, the “PBM E-score” value was -0.00112. For the sequence AATTTGAC, the “PBM E-score” value worked out at 0.133. The same measure for GACTCAGA: -0.142; for AAGCCCCG: -0.0295. On to ATTATAAA, for which the “PBM E-score” value was 0.195. In the case of CCTAGCGA, the “PBM E-score” value is -0.215. The same measure for CGGTTAAA: 0.0537. Take ACTGCATC: the “PBM E-score” value was found to be 0.108. With GAGGTTGA, the “PBM E-score” value was -0.133. For AGCGTTGA, the “PBM E-score” value was -0.195. GACGGTGC: the “PBM E-score” value is -0.124. On to GTGGCCAC, for which the “PBM E-score” value stood at 0.0208. For the sequence AGGGAGGC, the “PBM E-score” value was -0.336. Take ACTCGCGG: the “PBM E-score” value is -0.035. With CGATGATC, the “PBM E-score” value was 0.02. With ATGTCACG, the “PBM E-score” value was 0.11.

In the case of AAGACGAG, the “PBM E-score” value was -0.0816. With GAGGCAAA, the “PBM E-score” value was 0.0934.

Turning to ATCGCTCG, the “PBM E-score” value came to 0.022.

As to ACTACACT, the “PBM E-score” value was -0.0752.

Take ACGATAAC: the “PBM E-score” value amounted to 0.175.

For the sequence ACTGGAAC, the “PBM E-score” value is -0.0303. In the case of TTTATAAA, the “PBM E-score” value amounted to 0.259. For AGTCGATG, the “PBM E-score” value stood at 0.101. Consider AAGCCAGT, for which the “PBM E-score” value is -0.147.

Regarding ATGAGGTG, the “PBM E-score” value was 0.0777. As to TGGACACA, the “PBM E-score” value was found to be 0.0222.

As for GCAGGGTA, the “PBM E-score” value is -0.112. With AATCCCTG, the “PBM E-score” value stood at 0.0164.

On to ACCAGTAC, for which the “PBM E-score” value is -0.0707. CACGCACC: the “PBM E-score” value was -0.261. In the case of ACTAGGCT, the “PBM E-score” value is -0.0636. Turning to AGGCTAGA, the “PBM E-score” value was -0.291. On to CTGTCTGC, for which the “PBM E-score” value is -0.211. Consider CCTTCTAG, for which the “PBM E-score” value is -0.227. With CTCAACCA, the “PBM E-score” value worked out at 0.0963.

For the sequence CGACCCCA, the “PBM E-score” value was 0.0462. Turning to ACGGTTGG, the “PBM E-score” value was -0.0488. The same measure for CTCATCAA: 0.0793. The same measure for CGATAGCA: -0.0588; for ATGATCTA: 0.214; for AAACCGTA: -0.147. Take AATCATCC: the “PBM E-score” value came to 0.227. With ATTCGCTA, the “PBM E-score” value was found to be 0.00117. The same measure for AGGGCGCC: -0.159. Take CATACGGC: the “PBM E-score” value was 0.0834.

Take GATATAGA: the “PBM E-score” value is 0.0867. As for CAGGCTTA, the “PBM E-score” value came out at 0.0661. The result for TAAACCTA reads 0.118. Turning to TCCGTAGA, the “PBM E-score” value was -0.132.

For ACGGTAGG, the “PBM E-score” value is -0.0787.

Take AGGTCACT: the “PBM E-score” value was -0.262. AGCGAACC: the “PBM E-score” value is -0.0568.

For CTGGGTAC, the “PBM E-score” value was -0.151.
